Read-outs that look alike come from different tables or passages of the source. No constants are given. Whether binding was seen depends on the method and setting. In cells and extracts the contact can be indirect. Some results given as binding are weak or reduced against the parent protein; the word gives no strength.
T1: NLRP1 (human (endogenous in THP-1)) (UniProt Q9C000)
T1 sequence: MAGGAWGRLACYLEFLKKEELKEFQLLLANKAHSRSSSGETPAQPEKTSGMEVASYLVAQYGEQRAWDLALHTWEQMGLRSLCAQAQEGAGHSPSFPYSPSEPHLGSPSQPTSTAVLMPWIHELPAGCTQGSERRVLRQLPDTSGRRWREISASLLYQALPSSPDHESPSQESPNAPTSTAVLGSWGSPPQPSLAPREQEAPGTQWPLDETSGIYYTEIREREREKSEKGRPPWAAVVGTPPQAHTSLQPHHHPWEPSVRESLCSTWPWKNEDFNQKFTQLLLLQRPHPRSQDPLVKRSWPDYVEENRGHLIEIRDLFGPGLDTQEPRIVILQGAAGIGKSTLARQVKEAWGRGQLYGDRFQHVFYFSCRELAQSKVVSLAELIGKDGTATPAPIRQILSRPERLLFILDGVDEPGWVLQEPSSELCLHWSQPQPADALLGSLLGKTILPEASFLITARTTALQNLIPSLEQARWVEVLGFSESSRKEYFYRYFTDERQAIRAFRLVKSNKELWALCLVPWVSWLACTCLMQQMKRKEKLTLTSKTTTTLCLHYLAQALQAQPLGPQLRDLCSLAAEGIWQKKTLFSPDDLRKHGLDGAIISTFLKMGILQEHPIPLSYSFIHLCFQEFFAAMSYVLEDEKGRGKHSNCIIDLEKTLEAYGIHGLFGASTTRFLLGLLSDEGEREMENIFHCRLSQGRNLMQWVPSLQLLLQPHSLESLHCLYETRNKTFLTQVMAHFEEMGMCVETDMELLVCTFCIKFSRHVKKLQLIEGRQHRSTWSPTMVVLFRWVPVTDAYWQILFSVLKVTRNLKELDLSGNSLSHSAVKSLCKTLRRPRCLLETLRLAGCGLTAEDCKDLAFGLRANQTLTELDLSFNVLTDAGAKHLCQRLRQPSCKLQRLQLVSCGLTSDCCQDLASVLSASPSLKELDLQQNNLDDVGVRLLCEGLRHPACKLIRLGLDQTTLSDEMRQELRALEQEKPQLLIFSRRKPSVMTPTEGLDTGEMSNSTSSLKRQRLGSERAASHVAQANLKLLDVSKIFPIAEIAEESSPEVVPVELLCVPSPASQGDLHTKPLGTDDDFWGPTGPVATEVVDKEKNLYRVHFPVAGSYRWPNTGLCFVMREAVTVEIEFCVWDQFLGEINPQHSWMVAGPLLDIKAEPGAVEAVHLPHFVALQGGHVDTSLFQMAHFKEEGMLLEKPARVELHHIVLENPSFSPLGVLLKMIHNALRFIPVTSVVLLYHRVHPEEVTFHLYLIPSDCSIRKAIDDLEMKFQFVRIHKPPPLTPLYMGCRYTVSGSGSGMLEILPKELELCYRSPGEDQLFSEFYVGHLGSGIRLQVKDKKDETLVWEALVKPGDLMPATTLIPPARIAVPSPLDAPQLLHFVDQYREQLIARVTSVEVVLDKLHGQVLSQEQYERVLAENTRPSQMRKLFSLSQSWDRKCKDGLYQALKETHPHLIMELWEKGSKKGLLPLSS

Chains of the proteins cited; added tags and fusions are not shown.
UniProt Q8TDX7: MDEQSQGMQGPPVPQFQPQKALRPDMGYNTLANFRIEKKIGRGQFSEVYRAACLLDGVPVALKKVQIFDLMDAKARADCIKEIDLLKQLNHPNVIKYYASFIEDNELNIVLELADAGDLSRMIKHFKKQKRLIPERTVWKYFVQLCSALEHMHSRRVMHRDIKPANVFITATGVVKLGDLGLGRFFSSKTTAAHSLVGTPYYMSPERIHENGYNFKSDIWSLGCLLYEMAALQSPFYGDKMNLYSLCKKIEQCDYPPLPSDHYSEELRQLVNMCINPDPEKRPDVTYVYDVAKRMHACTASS
UniProt Q9ULZ3: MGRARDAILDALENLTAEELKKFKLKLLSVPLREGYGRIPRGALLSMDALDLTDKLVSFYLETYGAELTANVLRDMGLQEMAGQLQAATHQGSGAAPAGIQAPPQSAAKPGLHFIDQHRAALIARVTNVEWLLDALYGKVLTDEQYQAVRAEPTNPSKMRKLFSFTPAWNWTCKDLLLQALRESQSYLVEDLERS


Assays:
Assay in all cases: co-IP
[1] = target: NEK7 (human (endogenous in THP-1)) (UniProt Q8TDX7)
[2] = target: T1, NLRP1 (human (endogenous in THP-1))
[3] = target: NEK7 (human (endogenous in THP-1)) (UniProt Q8TDX7); remark: listed apart in the source

Row | Molecule | binding [1] | binding [2] | binding [3]
1 | ASC (from UniProt Q9ULZ3 1-195) | binds | binds | 
2 | NLRP1 (protein, UniProt Q9C000 1-1473) MAGGAWGRLACYLEFLKKEELKEFQLLLANKAHSRSSSGETPAQPEKTSGMEVASYLVAQYGEQRAWDLALHTWEQMGLRSLCAQAQEGAGHSPSFPYSPSEPHLGSPSQPTSTAVLMPWIHELPAGCTQGSERRVLRQLPDTSGRRWREISASLLYQALPSSPDHESPSQESPNAPTSTAVLGSWGSPPQPSLAPREQEAPGTQWPLDETSGIYYTEIREREREKSEKGRPPWAAVVGTPPQAHTSLQPHHHPWEPSVRESLCSTWPWKNEDFNQKFTQLLLLQRPHPRSQDPLVKRSWPDYVEENRGHLIEIRDLFGPGLDTQEPRIVILQGAAGIGKSTLARQVKEAWGRGQLYGDRFQHVFYFSCRELAQSKVVSLAELIGKDGTATPAPIRQILSRPERLLFILDGVDEPGWVLQEPSSELCLHWSQPQPADALLGSLLGKTILPEASFLITARTTALQNLIPSLEQARWVEVLGFSESSRKEYFYRYFTDERQAIRAFRLVKSNKELWALCLVPWVSWLACTCLMQQMKRKEKLTLTSKTTTTLCLHYLAQALQAQPLGPQLRDLCSLAAEGIWQKKTLFSPDDLRKHGLDGAIISTFLKMGILQEHPIPLSYSFIHLCFQEFFAAMSYVLEDEKGRGKHSNCIIDLEKTLEAYGIHGLFGASTTRFLLGLLSDEGEREMENIFHCRLSQGRNLMQWVPSLQLLLQPHSLESLHCLYETRNKTFLTQVMAHFEEMGMCVETDMELLVCTFCIKFSRHVKKLQLIEGRQHRSTWSPTMVVLFRWVPVTDAYWQILFSVLKVTRNLKELDLSGNSLSHSAVKSLCKTLRRPRCLLETLRLAGCGLTAEDCKDLAFGLRANQTLTELDLSFNVLTDAGAKHLCQRLRQPSCKLQRLQLVSCGLTSDCCQDLASVLSASPSLKELDLQQNNLDDVGVRLLCEGLRHPACKLIRLGLDQTTLSDEMRQELRALEQEKPQLLIFSRRKPSVMTPTEGLDTGEMSNSTSSLKRQRLGSERAASHVAQANLKLLDVSKIFPIAEIAEESSPEVVPVELLCVPSPASQGDLHTKPLGTDDDFWGPTGPVATEVVDKEKNLYRVHFPVAGSYRWPNTGLCFVMREAVTVEIEFCVWDQFLGEINPQHSWMVAGPLLDIKAEPGAVEAVHLPHFVALQGGHVDTSLFQMAHFKEEGMLLEKPARVELHHIVLENPSFSPLGVLLKMIHNALRFIPVTSVVLLYHRVHPEEVTFHLYLIPSDCSIRKAIDDLEMKFQFVRIHKPPPLTPLYMGCRYTVSGSGSGMLEILPKELELCYRSPGEDQLFSEFYVGHLGSGIRLQVKDKKDETLVWEALVKPGDLMPATTLIPPARIAVPSPLDAPQLLHFVDQYREQLIARVTSVEVVLDKLHGQVLSQEQYERVLAENTRPSQMRKLFSLSQSWDRKCKDGLYQALKETHPHLIMELWEKGSKKGLLPLSS | binds |  | binds
3 | NLRP10 (protein, UniProt Q86W26 1-655) MAMAKARKPREALLWALSDLEENDFKKLKFYLRDMTLSEGQPPLARGELEGLIPVDLAELLISKYGEKEAVKVVLKGLKVMNLLELVDQLSHICLHDYREVYREHVRCLEEWQEAGVNGRYNQVLLVAKPSSESPESLACPFPEQELESVTVEALFDSGEKPSLAPSLVVLQGSAGTGKTTLARKMVLDWATGTLYPGRFDYVFYVSCKEVVLLLESKLEQLLFWCCGDNQAPVTEILRQPERLLFILDGFDELQRPFEEKLKKRGLSPKESLLHLLIRRHTLPTCSLLITTRPLALRNLEPLLKQARHVHILGFSEEERARYFSSYFTDEKQADRAFDIVQKNDILYKACQVPGICWVVCSWLQGQMERGKVVLETPRNSTDIFMAYVSTFLPPDDDGGCSELSRHRVLRSLCSLAAEGIQHQRFLFEEAELRKHNLDGPRLAAFLSSNDYQLGLAIKKFYSFRHISFQDFFHAMSYLVKEDQSRLGKESRREVQRLLEVKEQEGNDEMTLTMQFLLDISKKDSFSNLELKFCFRISPCLAQDLKHFKEQMESMKHNRTWDLEFSLYEAKIKNLVKGIQMNNVSFKIKHSNEKKSQSQNLFSVKSSLSHGPKEEQKCPSVHGQKEGKDNIAGTQKEASTGKGRGTEETPKNTYI |  |  | no binding
